Source: patent US20190298775A1, “LIVER ORGANOID COMPOSITIONS AND METHODS OF MAKING AND USING SAME” (Children's Hospital Medical Center, priority 2016, published 2019)

Tested on: human liver organoids

`CCCCc1oc2ccccc2c1C(=O)c1cc(I)c(OCCN(CC)CC)c(I)c1` [amiodarone] was tested, and the “viability / toxicity to organoids in dose finding” value was “significantly toxic”.
